The values that follow come from PMC8551951 (Biophysical Reviews, 2021).

Chains of the proteins cited; added tags and fusions are not shown.
UniProt Q8NER1, whole entry: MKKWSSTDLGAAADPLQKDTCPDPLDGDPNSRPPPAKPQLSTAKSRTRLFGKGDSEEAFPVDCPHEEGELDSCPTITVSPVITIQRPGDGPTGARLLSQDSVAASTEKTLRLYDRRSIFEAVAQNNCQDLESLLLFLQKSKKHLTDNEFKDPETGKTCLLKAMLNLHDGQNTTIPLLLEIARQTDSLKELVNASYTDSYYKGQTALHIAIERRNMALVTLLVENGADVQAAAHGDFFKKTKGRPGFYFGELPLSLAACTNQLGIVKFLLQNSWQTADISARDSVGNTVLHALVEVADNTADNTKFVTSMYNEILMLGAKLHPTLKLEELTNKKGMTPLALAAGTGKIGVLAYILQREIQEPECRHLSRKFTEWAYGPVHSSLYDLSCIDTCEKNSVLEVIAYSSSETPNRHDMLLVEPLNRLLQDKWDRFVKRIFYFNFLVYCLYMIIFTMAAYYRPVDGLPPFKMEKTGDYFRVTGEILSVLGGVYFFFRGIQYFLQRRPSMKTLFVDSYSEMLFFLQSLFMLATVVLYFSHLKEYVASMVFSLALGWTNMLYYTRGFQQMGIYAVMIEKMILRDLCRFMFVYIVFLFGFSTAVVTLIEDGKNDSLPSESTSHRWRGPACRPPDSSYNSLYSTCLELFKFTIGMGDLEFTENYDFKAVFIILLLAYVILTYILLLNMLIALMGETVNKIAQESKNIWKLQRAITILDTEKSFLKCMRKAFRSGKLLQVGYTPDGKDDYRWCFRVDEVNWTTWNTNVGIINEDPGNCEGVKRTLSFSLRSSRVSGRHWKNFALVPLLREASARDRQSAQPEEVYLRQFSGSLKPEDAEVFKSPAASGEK

The target of this assay is TRPV1 channel heterologously expressed in HEK293 cells (Homo sapiens, UniProt Q8NER1). The assay can be described thus: cell-based. Conditions: HEK293, read-out: % inhibition of capsaicin-induced TRPV1 currents.

A word on the inhibition: it is the share of the control response that was lost under treatment.

`C(=C\c1ccccc1)/CN1CCN(C(c2ccccc2)c2ccccc2)CC1` [Cinnarizine]: the inhibition at 1 µM was 40 ± 6%.
